Experiment [1] addresses T1, HIGH LEAF TEMPERATURE 1 (HT1), split-ubiquitin bait (Arabidopsis thaliana (Col-0 cDNA)) (UniProt Q2MHE4).
T1 sequence: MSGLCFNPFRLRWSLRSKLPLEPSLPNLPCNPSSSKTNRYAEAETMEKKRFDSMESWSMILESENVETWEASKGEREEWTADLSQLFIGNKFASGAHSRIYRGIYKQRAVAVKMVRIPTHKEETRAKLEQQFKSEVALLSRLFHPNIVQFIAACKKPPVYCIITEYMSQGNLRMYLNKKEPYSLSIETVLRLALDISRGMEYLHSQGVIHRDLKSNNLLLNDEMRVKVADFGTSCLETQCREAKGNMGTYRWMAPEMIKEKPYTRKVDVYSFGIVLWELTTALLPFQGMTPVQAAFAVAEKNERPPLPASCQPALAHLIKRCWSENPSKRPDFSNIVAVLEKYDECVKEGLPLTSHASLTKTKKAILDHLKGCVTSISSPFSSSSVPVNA
Kind of experiment: two-hybrid; pairwise split-ubiquitin yeast two-hybrid (DUALhunter and DUALmembrane 3 kits), strain NMY51; bait in pDHB1 (Cub-LexA-VP16), prey in pPR3-N (NubG); growth on SD-Leu-Trp-His-Ade, X-gal overlay, quantitative beta-galactosidase assay from pools of ten colonies.

The target of experiment [2] is T2, HT1, split-YFP fusion for BiFC (Arabidopsis thaliana) (UniProt Q2MHE4).
T2 sequence: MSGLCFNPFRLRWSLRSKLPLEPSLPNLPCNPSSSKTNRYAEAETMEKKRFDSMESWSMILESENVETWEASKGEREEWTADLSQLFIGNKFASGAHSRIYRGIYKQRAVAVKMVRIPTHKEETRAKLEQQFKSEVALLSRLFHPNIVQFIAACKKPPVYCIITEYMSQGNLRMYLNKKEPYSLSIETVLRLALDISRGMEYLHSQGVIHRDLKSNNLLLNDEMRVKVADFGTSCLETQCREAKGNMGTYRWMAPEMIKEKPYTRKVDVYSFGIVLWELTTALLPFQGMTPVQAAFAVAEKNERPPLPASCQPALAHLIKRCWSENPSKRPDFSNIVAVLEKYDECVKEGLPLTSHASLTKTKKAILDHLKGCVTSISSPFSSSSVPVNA
Kind of experiment: split reporter; ratiometric BiFC with split YFP in agro-infiltrated N. benthamiana leaves, co-infiltrated with SLAC1-CFP internal control and P19; confocal images at 3 dpi.

The target in experiment [3] is T3, HT1 fused to cLUC (Arabidopsis thaliana) (UniProt Q2MHE4).
T3 sequence: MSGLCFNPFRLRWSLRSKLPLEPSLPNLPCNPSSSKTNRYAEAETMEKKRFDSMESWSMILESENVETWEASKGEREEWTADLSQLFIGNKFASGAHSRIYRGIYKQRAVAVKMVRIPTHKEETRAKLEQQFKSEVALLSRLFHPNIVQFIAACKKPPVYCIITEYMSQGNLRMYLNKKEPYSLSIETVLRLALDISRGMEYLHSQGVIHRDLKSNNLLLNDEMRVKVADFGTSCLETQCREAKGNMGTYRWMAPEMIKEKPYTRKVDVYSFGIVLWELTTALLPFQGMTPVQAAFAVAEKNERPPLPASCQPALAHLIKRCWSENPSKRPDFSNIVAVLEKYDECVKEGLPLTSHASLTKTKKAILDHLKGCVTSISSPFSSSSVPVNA
Briefly: split reporter; split luciferase complementation (nLUC/cLUC) in agro-infiltrated N. benthamiana leaves with P19; bioluminescence after 3 d, CCD camera.

Experiment [4] has as its target T4, MITOGEN-… PROTEIN KINASE 12 (MPK12), Col-0 version, split-ubiquitin bait (Arabidopsis thaliana (Col-0 cDNA)) (UniProt Q8GYQ5).
T4 sequence: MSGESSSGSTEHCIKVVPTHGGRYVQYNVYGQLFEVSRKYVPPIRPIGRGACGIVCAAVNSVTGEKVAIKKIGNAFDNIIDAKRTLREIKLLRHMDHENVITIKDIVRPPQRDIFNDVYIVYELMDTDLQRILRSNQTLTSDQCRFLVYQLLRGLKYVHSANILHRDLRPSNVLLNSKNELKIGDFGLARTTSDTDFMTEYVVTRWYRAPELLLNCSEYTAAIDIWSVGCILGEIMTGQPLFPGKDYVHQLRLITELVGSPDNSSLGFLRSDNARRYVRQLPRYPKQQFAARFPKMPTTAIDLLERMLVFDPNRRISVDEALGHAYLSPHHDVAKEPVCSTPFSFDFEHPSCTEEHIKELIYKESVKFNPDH
Kind of experiment: two-hybrid; pairwise split-ubiquitin yeast two-hybrid (DUALhunter and DUALmembrane 3 kits), strain NMY51; bait in pDHB1 (Cub-LexA-VP16), prey in pPR3-N (NubG); growth on SD-Leu-Trp-His-Ade, X-gal overlay, quantitative beta-galactosidase assay from pools of ten colonies.

These are yes or no findings as the source states them, for the method shown. For some of these results: In cells and extracts the contact can be indirect. Some binding calls cover weakened binding; strength is not graded here. For some of these results: Tags and fused reporters may be left off the sequences shown.

B1: MITOGEN-… PROTEIN KINASE 12 (MPK12), Col-0 version, split-ubiquitin prey (protein, UniProt Q8GYQ5 1-372)
chain: MSGESSSGSTEHCIKVVPTHGGRYVQYNVYGQLFEVSRKYVPPIRPIGRGACGIVCAAVNSVTGEKVAIKKIGNAFDNIIDAKRTLREIKLLRHMDHENVITIKDIVRPPQRDIFNDVYIVYELMDTDLQRILRSNQTLTSDQCRFLVYQLLRGLKYVHSANILHRDLRPSNVLLNSKNELKIGDFGLARTTSDTDFMTEYVVTRWYRAPELLLNCSEYTAAIDIWSVGCILGEIMTGQPLFPGKDYVHQLRLITELVGSPDNSSLGFLRSDNARRYVRQLPRYPKQQFAARFPKMPTTAIDLLERMLVFDPNRRISVDEALGHAYLSPHHDVAKEPVCSTPFSFDFEHPSCTEEHIKELIYKESVKFNPDH
Regarding B1, the binding result in experiment [1] is on record as “binds”.

B2: MPK12 G53R (Cvi-0 version), split-YFP fusion for BiFC (protein, UniProt Q8GYQ5 1-372)
chain: MSGESSSGSTEHCIKVVPTHGGRYVQYNVYGQLFEVSRKYVPPIRPIGRGACRIVCAAVNSVTGEKVAIKKIGNAFDNIIDAKRTLREIKLLRHMDHENVITIKDIVRPPQRDIFNDVYIVYELMDTDLQRILRSNQTLTSDQCRFLVYQLLRGLKYVHSANILHRDLRPSNVLLNSKNELKIGDFGLARTTSDTDFMTEYVVTRWYRAPELLLNCSEYTAAIDIWSVGCILGEIMTGQPLFPGKDYVHQLRLITELVGSPDNSSLGFLRSDNARRYVRQLPRYPKQQFAARFPKMPTTAIDLLERMLVFDPNRRISVDEALGHAYLSPHHDVAKEPVCSTPFSFDFEHPSCTEEHIKELIYKESVKFNPDH
Turning to B2, in experiment [2], the binding entry is recorded as “binds”.

B3: MPK12 G53R (Cvi-0 version of MPK12), split-ubiquitin prey (protein, UniProt Q8GYQ5 1-372)
chain: MSGESSSGSTEHCIKVVPTHGGRYVQYNVYGQLFEVSRKYVPPIRPIGRGACRIVCAAVNSVTGEKVAIKKIGNAFDNIIDAKRTLREIKLLRHMDHENVITIKDIVRPPQRDIFNDVYIVYELMDTDLQRILRSNQTLTSDQCRFLVYQLLRGLKYVHSANILHRDLRPSNVLLNSKNELKIGDFGLARTTSDTDFMTEYVVTRWYRAPELLLNCSEYTAAIDIWSVGCILGEIMTGQPLFPGKDYVHQLRLITELVGSPDNSSLGFLRSDNARRYVRQLPRYPKQQFAARFPKMPTTAIDLLERMLVFDPNRRISVDEALGHAYLSPHHDVAKEPVCSTPFSFDFEHPSCTEEHIKELIYKESVKFNPDH
For B3, in experiment [1], the binding result is “binds weakly”.

B4: MPK12 (Col-0 version), split-YFP fusion for BiFC (protein, UniProt Q8GYQ5 1-372)
chain: MSGESSSGSTEHCIKVVPTHGGRYVQYNVYGQLFEVSRKYVPPIRPIGRGACGIVCAAVNSVTGEKVAIKKIGNAFDNIIDAKRTLREIKLLRHMDHENVITIKDIVRPPQRDIFNDVYIVYELMDTDLQRILRSNQTLTSDQCRFLVYQLLRGLKYVHSANILHRDLRPSNVLLNSKNELKIGDFGLARTTSDTDFMTEYVVTRWYRAPELLLNCSEYTAAIDIWSVGCILGEIMTGQPLFPGKDYVHQLRLITELVGSPDNSSLGFLRSDNARRYVRQLPRYPKQQFAARFPKMPTTAIDLLERMLVFDPNRRISVDEALGHAYLSPHHDVAKEPVCSTPFSFDFEHPSCTEEHIKELIYKESVKFNPDH
Turning to B4, the binding result in experiment [2] was “binds”.

B5: MPK12:nLUC (protein, UniProt Q8GYQ5 1-372)
chain: MSGESSSGSTEHCIKVVPTHGGRYVQYNVYGQLFEVSRKYVPPIRPIGRGACGIVCAAVNSVTGEKVAIKKIGNAFDNIIDAKRTLREIKLLRHMDHENVITIKDIVRPPQRDIFNDVYIVYELMDTDLQRILRSNQTLTSDQCRFLVYQLLRGLKYVHSANILHRDLRPSNVLLNSKNELKIGDFGLARTTSDTDFMTEYVVTRWYRAPELLLNCSEYTAAIDIWSVGCILGEIMTGQPLFPGKDYVHQLRLITELVGSPDNSSLGFLRSDNARRYVRQLPRYPKQQFAARFPKMPTTAIDLLERMLVFDPNRRISVDEALGHAYLSPHHDVAKEPVCSTPFSFDFEHPSCTEEHIKELIYKESVKFNPDH
Take B5: in experiment [3], the binding entry was “binds”.

B6: HIGH LEAF TEMPERATURE 1 (HT1), split-ubiquitin prey (protein, UniProt Q2MHE4 1-390)
chain: MSGLCFNPFRLRWSLRSKLPLEPSLPNLPCNPSSSKTNRYAEAETMEKKRFDSMESWSMILESENVETWEASKGEREEWTADLSQLFIGNKFASGAHSRIYRGIYKQRAVAVKMVRIPTHKEETRAKLEQQFKSEVALLSRLFHPNIVQFIAACKKPPVYCIITEYMSQGNLRMYLNKKEPYSLSIETVLRLALDISRGMEYLHSQGVIHRDLKSNNLLLNDEMRVKVADFGTSCLETQCREAKGNMGTYRWMAPEMIKEKPYTRKVDVYSFGIVLWELTTALLPFQGMTPVQAAFAVAEKNERPPLPASCQPALAHLIKRCWSENPSKRPDFSNIVAVLEKYDECVKEGLPLTSHASLTKTKKAILDHLKGCVTSISSPFSSSSVPVNA
B6: in experiment [4], the binding entry is recorded as “binds”.

B7: INDOLE-3-BUTYRIC ACID RESPONSE 5 (IBR5), split-ubiquitin prey (protein, UniProt Q84JU4 1-257)
chain: MRKRERENPCSICGHYHKYEEGEVCGVCGHCMPVSSDTVAPQQVHVSAFPSEILPEFLYLGSYDNASRSELLKTQGISRVLNTVPMCQNLYRNSFTYHGLDNEKVLQFDDAIKFLDQCEKDKARVLVHCMSGKSRSPAVVVAYLMKRKGWRLAESHQWVKQRRPSTDISPEFYQQLQEFEQGIFGSEMMSAMNINDAPTFGFGFPKIDNQAQAPVFNNAPTSSIFSSPASSIPPQEFTFGATPPKPTTGGDIAMDGS
In the case of B7, the binding entry in experiment [4] is listed as “binds”.

The values are drawn from paper PMC5147794.
